Assay results as given in article PMC10657444, “Design and evaluation of tadpole-like conformational antimicrobial peptides” (Communications Biology, 2023).
Values joined by “and” are separate entries in the source; they are usually repeats but may differ in a detail not shown here. Equal values may be shown once. The source gives many values for each of these; only a part stands here. Residues, ends and D or L forms follow the SMILES beside them.

How the values were obtained:
[1] = system: MRSA USA 300; assay: Membrane depolarization assay, DiSC3(5); type: cell-based, Staphylococcus aureus
Procedure: (§1) MRSA USA 300 and K. pneumoniae ATCC 700603 were inoculated into 5 mL of LB and shaken at 37°C and 225 rpm to OD600 ≈ 0.5 (i.e., mid-logarithmic phase). Bacteria were collected by centrifugation at 8000 rpm for 5 min, and washed twice with assay buffer (5 mM HEPES, 20 mM glucose, 10 mM KCl, pH 7.2). Bacteria were resuspended in the assay buffer to OD595 ≈ 0.1. DiSC3(5) was added to the cells at final concentration of 0.3 µM, wrapped with aluminum foil, and incubated at 37°C, until a stable fluorescence was observed. Two microliter of compound or DMSO were transferred into 96-well black walled polystyrene plates, to which was added 98 µL per well of the dye-saturated bacterial cells to initiate the reaction. The final concentration of HT2 and RI-HT2 were 1 ×, 2 ×, 4 × and 8 × MIC. Plates were immediately read on an Envison at λex = 622 nm/ λem = 670 nm with a kinetic program (reading every 1 min for 10 min) until the maximal intensity achieved was observed.

[2] = system: K. pneumoniae ATCC 700603; assay: Membrane depolarization assay, DiSC3(5); type: cell-based, Klebsiella pneumoniae
Procedure: as §1

SMILES: CC[C@H](C)[C@H](NC(=O)[C@H](CCCNC(=N)N)NC(=O)[C@H](CCCNC(=N)N)NC(=O)[C@H](CC(C)C)NC(=O)[C@H](Cc1ccccc1)NC(=O)[C@@H](N)CCCNC(=N)N)C(=O)N[C@@H](Cc1ccccc1)C(=O)N[C@@H](Cc1ccccc1)C(=O)N[C@@H](Cc1ccccc1)C(=O)N[C@@H](Cc1ccccc1)C(N)=O [HT2] (H-RFLRRIFFFF-NH2)
- Fluorescence intensity ([1]; 2 × MIC, time 0 min): 407359 and 437585 and 424634
- Fluorescence intensity ([1]; 2 × MIC, time 2 min): 412470 and 415315 and 402376
- Fluorescence intensity ([1]; 2 × MIC, time 3 min): 516376 and 562498 and 601474
- Fluorescence intensity ([1]; 2 × MIC, time 4 min): 510300 and 570800 and 630470
- Fluorescence intensity ([1]; 2 × MIC, time 5 min): 496322 and 506547 and 579475
- Fluorescence intensity ([1]; 2 × MIC, time 6 min): 456323 and 447824 and 539307
- Fluorescence intensity ([1]; 2 × MIC, time 7 min): 440360 and 434093 and 489563
- Fluorescence intensity ([1]; 2 × MIC, time 8 min): 452668 and 427523 and 487829
- Fluorescence intensity ([1]; 2 × MIC, time 9 min): 422148 and 429265 and 465890
- Fluorescence intensity ([1]; 2 × MIC, time 10 min): 449615 and 438352 and 460148
- Fluorescence intensity ([1]; 4 × MIC, time 0 min): 441413 and 536565 and 417503
- Fluorescence intensity ([1]; 4 × MIC, time 2 min): 426554 and 514956 and 416285
- Fluorescence intensity ([1]; 4 × MIC, time 3 min): 717544 and 870397 and 699081
- Fluorescence intensity ([1]; 4 × MIC, time 4 min): 757392 and 920774 and 755685
- Fluorescence intensity ([1]; 4 × MIC, time 5 min): 764744 and 883071 and 715560
- Fluorescence intensity ([1]; 4 × MIC, time 6 min): 838405 and 834258 and 708253
- Fluorescence intensity ([1]; 4 × MIC, time 7 min): 823066 and 809554 and 784437
- Fluorescence intensity ([1]; 4 × MIC, time 8 min): 888884 and 803808 and 844536
- Fluorescence intensity ([1]; 4 × MIC, time 9 min): 871568 and 912228 and 905614
- Fluorescence intensity ([1]; 4 × MIC, time 10 min): 891952 and 894730 and 891104
- Fluorescence intensity ([1]; 8 × MIC, time 0 min): 427661 and 397617 and 379474
- Fluorescence intensity ([1]; 8 × MIC, time 2 min): 417704 and 400976 and 367495
- Fluorescence intensity ([1]; 8 × MIC, time 3 min): 823344 and 814418 and 781673
- Fluorescence intensity ([1]; 8 × MIC, time 4 min): 953549 and 861939 and 867753
- Fluorescence intensity ([1]; 8 × MIC, time 5 min): 947843 and 975941 and 1002968
- Fluorescence intensity ([1]; 8 × MIC, time 6 min): 1148941 and 1125882 and 1075269
- Fluorescence intensity ([1]; 8 × MIC, time 7 min): 1294211 and 1246379 and 1153072
- Fluorescence intensity ([1]; 8 × MIC, time 8 min): 1320642 and 1222140 and 1153431
- Fluorescence intensity ([1]; 8 × MIC, time 9 min): 1265654 and 1251184 and 1176714
- Fluorescence intensity ([1]; 8 × MIC, time 10 min): 1308322 and 1257311 and 1209416
- Fluorescence intensity ([1]; MIC, time 0 min): 387778 and 420337 and 427383
- Fluorescence intensity ([1]; MIC, time 2 min): 408657 and 432470 and 415073
- Fluorescence intensity ([1]; MIC, time 3 min): 528052 and 492360 and 502885
- Fluorescence intensity ([1]; MIC, time 4 min): 519221 and 460003 and 458630
- Fluorescence intensity ([1]; MIC, time 5 min): 456271 and 419492 and 438575
- Fluorescence intensity ([1]; MIC, time 6 min): 442184 and 426092 and 424293
- Fluorescence intensity ([1]; MIC, time 7 min): 424790 and 424169 and 440889
- Fluorescence intensity ([1]; MIC, time 8 min): 429913 and 411441 and 435378
- Fluorescence intensity ([1]; MIC, time 9 min): 435238 and 427525 and 409496
- Fluorescence intensity ([1]; MIC, time 10 min): 448666 and 423826 and 425972
- Fluorescence intensity ([2]; 2 × MIC, time 0 min): 302680 and 276617 and 304573
- Fluorescence intensity ([2]; 2 × MIC, time 2 min): 271312 and 250021 and 261002
- Fluorescence intensity ([2]; 2 × MIC, time 3 min): 455375 and 430583 and 456972
- Fluorescence intensity ([2]; 2 × MIC, time 4 min): 478620 and 434055 and 444587
- Fluorescence intensity ([2]; 2 × MIC, time 5 min): 507397 and 451720 and 418387
- Fluorescence intensity ([2]; 2 × MIC, time 6 min): 499690 and 417245 and 460066
- Fluorescence intensity ([2]; 2 × MIC, time 7 min): 470784 and 429576 and 391772
- Fluorescence intensity ([2]; 2 × MIC, time 8 min): 467039 and 421550 and 411213
- Fluorescence intensity ([2]; 2 × MIC, time 9 min): 480548 and 429745 and 436234
- Fluorescence intensity ([2]; 2 × MIC, time 10 min): 489139 and 462791 and 445939
- Fluorescence intensity ([2]; 4 × MIC, time 0 min): 346286 and 308869 and 295458
- Fluorescence intensity ([2]; 4 × MIC, time 2 min): 313413 and 282521 and 275601
- Fluorescence intensity ([2]; 4 × MIC, time 3 min): 464906 and 449225 and 482726
- Fluorescence intensity ([2]; 4 × MIC, time 4 min): 487468 and 430316 and 569485
- Fluorescence intensity ([2]; 4 × MIC, time 5 min): 504915 and 466474 and 565850
- Fluorescence intensity ([2]; 4 × MIC, time 6 min): 535985 and 484757 and 502662
- Fluorescence intensity ([2]; 4 × MIC, time 7 min): 602636 and 507164 and 508142
- Fluorescence intensity ([2]; 4 × MIC, time 8 min): 620584 and 493354 and 494340
- Fluorescence intensity ([2]; 4 × MIC, time 9 min): 605997 and 514932 and 521722
